Results taken from the supplement of paper PMC6411743.
± gives the standard deviation of the averaged measurements. This is a selection; strong and weak results do not stand in their true shares. Most entries show no effect beyond the scatter of the controls.

By UniProt entry, the sequences of proteins in these tests, tags left out. Where a name states a change or a piece, a line headed by the entry shows the natural chain unless it says otherwise.
UniProt Q14573, whole entry: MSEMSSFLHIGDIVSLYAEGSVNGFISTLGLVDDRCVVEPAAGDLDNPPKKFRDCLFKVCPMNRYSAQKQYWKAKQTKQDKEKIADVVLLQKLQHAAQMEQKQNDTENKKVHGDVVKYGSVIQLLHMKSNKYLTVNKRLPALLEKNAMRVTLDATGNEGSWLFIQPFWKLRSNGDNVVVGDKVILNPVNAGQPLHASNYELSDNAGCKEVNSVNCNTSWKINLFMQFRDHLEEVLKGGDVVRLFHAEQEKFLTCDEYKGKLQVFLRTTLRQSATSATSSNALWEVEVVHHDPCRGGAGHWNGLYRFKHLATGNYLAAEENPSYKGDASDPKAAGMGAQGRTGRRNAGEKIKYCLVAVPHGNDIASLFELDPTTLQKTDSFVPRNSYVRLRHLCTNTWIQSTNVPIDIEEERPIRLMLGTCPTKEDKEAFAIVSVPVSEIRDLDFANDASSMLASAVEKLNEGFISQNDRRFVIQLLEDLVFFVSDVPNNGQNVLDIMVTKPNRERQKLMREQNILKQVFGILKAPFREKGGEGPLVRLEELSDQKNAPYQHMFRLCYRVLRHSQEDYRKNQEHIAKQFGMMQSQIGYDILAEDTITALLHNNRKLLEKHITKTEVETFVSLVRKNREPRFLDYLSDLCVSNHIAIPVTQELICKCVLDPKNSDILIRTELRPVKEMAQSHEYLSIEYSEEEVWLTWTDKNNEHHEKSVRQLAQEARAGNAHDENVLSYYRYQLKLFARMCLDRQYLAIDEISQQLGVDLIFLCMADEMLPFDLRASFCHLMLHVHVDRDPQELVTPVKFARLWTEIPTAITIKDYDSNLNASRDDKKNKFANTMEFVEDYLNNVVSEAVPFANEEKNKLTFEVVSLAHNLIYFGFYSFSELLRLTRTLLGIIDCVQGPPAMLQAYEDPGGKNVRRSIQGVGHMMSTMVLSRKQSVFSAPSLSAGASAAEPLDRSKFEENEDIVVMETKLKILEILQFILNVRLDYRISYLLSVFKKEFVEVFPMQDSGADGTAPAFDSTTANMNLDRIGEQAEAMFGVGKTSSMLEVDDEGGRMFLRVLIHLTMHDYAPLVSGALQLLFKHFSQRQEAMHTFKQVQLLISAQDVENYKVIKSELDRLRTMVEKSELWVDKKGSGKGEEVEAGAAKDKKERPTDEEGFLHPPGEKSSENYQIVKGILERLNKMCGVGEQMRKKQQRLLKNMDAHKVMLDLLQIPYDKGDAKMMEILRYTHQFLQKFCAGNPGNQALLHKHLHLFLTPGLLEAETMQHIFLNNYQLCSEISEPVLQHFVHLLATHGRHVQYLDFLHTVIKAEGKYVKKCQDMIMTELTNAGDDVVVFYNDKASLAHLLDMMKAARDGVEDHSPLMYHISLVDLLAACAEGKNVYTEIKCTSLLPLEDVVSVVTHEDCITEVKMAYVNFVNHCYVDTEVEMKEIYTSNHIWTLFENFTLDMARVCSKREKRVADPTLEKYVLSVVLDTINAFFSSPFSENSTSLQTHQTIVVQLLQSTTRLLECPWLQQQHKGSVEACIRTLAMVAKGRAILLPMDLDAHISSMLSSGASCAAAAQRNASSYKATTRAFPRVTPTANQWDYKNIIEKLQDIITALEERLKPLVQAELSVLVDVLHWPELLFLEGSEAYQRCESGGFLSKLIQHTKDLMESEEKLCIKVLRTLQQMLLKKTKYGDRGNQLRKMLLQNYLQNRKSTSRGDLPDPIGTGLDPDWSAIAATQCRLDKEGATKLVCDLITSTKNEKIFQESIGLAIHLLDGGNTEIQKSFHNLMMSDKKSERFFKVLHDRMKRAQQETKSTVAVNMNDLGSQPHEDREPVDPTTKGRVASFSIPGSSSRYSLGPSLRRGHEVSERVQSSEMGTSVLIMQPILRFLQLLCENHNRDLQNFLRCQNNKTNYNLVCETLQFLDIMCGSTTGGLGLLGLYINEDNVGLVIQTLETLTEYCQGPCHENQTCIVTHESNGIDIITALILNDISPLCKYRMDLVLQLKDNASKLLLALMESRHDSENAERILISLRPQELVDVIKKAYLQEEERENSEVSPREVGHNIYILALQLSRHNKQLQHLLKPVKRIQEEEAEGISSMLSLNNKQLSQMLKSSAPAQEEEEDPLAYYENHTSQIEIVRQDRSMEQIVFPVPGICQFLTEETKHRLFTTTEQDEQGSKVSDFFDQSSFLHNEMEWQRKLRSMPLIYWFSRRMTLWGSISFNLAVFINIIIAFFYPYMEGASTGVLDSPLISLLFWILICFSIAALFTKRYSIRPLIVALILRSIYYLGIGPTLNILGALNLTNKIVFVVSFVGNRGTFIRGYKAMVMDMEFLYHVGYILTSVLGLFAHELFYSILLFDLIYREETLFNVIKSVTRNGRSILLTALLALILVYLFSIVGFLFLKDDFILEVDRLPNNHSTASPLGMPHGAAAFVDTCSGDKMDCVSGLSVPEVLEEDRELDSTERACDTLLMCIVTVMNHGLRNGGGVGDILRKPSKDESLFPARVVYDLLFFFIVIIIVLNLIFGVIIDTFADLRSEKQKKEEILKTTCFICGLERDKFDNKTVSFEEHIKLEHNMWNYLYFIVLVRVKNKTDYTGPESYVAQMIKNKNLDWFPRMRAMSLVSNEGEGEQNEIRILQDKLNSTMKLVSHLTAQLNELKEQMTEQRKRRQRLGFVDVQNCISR
UniProt Q10472: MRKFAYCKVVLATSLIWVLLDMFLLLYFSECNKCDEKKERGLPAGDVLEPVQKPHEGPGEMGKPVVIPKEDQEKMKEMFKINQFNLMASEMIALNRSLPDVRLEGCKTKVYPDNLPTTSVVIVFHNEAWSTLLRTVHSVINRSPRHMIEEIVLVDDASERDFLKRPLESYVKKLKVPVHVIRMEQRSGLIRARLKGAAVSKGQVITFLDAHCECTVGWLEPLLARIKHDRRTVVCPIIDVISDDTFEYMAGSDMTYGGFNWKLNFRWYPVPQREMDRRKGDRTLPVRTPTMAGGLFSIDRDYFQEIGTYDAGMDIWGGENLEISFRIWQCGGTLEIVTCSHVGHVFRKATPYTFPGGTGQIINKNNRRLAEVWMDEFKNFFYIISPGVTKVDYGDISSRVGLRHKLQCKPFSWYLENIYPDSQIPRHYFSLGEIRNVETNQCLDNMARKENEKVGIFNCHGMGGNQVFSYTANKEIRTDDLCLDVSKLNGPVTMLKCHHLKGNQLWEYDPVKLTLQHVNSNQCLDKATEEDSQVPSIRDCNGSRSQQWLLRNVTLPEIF
UniProt Q13362, whole entry, looked up: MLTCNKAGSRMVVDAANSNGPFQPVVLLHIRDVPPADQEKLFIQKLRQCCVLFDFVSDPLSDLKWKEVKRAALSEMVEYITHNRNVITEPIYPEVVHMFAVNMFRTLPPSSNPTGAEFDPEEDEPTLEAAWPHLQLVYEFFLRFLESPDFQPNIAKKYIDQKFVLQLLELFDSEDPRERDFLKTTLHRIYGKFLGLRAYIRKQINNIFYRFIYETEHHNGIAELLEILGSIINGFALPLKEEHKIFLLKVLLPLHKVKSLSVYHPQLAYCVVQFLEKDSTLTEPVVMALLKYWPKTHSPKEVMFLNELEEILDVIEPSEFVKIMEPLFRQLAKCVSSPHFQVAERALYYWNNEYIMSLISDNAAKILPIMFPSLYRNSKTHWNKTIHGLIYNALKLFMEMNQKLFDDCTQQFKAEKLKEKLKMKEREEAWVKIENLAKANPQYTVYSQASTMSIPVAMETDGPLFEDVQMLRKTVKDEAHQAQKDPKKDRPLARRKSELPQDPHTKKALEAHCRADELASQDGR
UniProt Q14011: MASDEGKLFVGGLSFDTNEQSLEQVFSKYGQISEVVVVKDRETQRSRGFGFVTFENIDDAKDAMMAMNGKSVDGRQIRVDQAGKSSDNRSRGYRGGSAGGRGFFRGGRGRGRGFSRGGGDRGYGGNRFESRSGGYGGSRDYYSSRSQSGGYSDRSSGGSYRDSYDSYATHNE
UniProt Q15058: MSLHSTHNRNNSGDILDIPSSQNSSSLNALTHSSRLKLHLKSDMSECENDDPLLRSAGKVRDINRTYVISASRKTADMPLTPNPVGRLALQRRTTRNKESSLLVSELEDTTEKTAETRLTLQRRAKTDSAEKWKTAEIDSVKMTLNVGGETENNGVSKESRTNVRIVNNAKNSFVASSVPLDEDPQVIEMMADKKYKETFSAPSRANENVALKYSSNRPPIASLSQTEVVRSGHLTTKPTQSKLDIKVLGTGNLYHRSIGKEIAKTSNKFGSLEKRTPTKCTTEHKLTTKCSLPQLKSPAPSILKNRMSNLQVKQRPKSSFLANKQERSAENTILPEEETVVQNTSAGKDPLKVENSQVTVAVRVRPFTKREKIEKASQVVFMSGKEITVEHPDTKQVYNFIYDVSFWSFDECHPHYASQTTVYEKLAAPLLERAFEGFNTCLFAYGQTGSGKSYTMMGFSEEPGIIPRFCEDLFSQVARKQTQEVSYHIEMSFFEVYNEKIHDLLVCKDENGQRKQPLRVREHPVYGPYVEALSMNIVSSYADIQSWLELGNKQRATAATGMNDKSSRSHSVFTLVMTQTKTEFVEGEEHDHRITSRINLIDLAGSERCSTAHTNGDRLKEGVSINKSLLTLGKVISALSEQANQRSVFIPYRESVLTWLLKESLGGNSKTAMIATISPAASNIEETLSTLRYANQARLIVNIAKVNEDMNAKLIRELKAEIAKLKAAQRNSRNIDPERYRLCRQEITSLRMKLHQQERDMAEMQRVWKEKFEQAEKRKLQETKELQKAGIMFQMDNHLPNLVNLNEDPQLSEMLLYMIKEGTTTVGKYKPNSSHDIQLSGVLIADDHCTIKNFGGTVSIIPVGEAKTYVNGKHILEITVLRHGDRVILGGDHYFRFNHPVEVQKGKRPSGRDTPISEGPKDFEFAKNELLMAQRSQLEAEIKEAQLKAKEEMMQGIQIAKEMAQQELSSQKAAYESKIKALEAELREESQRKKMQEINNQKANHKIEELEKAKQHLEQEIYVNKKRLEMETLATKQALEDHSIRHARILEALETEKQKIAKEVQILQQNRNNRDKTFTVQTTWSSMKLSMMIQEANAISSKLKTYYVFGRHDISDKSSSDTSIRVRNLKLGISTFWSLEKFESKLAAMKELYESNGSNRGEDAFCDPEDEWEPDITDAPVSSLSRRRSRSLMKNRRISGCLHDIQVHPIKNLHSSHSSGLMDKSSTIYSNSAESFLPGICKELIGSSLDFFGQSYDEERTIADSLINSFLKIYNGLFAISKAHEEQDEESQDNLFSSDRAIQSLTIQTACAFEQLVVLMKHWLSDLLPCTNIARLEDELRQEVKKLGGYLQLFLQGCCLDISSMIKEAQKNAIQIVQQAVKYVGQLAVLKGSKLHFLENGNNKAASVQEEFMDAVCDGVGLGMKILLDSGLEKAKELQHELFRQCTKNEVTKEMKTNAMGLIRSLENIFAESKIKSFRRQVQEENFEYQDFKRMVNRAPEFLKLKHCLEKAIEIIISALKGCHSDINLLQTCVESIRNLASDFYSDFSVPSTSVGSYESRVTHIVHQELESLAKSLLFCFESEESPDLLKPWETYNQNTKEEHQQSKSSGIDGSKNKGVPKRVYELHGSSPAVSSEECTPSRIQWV
UniProt Q14289, whole entry, looked up: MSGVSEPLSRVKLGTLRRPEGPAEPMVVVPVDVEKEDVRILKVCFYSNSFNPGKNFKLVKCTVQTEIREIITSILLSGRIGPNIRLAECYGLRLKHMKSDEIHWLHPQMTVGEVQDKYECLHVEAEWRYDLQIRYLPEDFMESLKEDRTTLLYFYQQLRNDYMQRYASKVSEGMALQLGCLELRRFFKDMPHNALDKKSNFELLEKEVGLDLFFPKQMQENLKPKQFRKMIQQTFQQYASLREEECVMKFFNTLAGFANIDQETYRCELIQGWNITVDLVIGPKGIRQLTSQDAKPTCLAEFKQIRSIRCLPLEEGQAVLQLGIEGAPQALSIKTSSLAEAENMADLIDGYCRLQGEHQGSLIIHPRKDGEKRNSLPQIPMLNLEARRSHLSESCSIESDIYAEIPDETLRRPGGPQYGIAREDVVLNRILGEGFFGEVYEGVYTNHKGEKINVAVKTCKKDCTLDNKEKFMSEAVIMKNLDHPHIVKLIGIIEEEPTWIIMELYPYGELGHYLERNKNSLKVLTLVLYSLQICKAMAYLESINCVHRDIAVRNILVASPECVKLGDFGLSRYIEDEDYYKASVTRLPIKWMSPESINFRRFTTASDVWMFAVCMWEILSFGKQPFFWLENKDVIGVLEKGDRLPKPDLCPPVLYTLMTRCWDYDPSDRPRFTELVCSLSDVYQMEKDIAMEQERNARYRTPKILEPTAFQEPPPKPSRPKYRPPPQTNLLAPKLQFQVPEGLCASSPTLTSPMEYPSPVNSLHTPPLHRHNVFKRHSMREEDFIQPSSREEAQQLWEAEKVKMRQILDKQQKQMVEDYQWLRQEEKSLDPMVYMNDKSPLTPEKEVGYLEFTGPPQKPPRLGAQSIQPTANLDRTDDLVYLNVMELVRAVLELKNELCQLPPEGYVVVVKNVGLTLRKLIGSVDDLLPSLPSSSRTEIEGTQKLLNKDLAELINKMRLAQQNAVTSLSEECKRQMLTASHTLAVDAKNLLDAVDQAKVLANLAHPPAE

Compound: Nc1ncnc2c1ncn2[C@@H]1O[C@H](COP(=O)(O)OP(=O)(O)NP(=O)(O)O)[C@@H](O)[C@H]1O [adenylyl imidodiphosphate]
Test: NP40-soluble protein abundance relative to vehicle (solubility fold change) (ratio); higher = more soluble protein in presence of AMP-PNP
In short: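 Data come from three independent experiments in which Dounce-homogenised Jurkat crude lysate was treated at eight concentrations from 0.1 to 10 mM. Treatment ran 10 min at room temperature and then 3 min at 37 °C, after which 0.8% NP40 and benzonase were added for 60 min at 4 °C before ultracentrifugation. The supernatant underwent TMT labelling and LC-MS/MS, and vsn-normalised intensities were expressed as fold change against the detergent-processed vehicle in each replicate.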

Target	NP40-soluble protein abundance (concentration: 0.1mM)	NP40-soluble protein abundance (concentration: 0.5mM)
ITPR2 (UniProt Q14571)	1.01 ± 0.03	0.98 ± 0.069
IQGAP2 (UniProt Q13576)	0.967 ± 0.041	0.968 ± 0.059
UniProt Q14746 and related entries	0.987 ± 0.026	0.961 ± 0.058
ITPR3 (UniProt Q14573)	1.01 ± 0.043	0.973 ± 0.035
UniProt Q13428-3|Q13428-7|E7ETY2 and related entries	1 ± 0.022	1.06 ± 0.096
GOLGA3 (UniProt Q08378)	1.01 ± 0.037	1.02 ± 0.059
PAK2 (UniProt Q13177)	1 ± 0.018	1.007 ± 0.0037
GALNT1 (UniProt Q10472)	0.991 ± 0.032	0.971 ± 0.038
UniProt Q12797 and related entries	0.98 ± 0.059	0.976 ± 0.045
WTAP (UniProt Q15007)	1 ± 0.024	1.06 ± 0.068
UniProt Q10589 and related entries	0.9983 ± 0.004	1.02 ± 0.018
UniProt Q15029 and related entries	1.05 ± 0.018	1.03 ± 0.049
PMPCA (UniProt Q10713)	1.03 ± 0.049	0.977 ± 0.055
UniProt Q13884 and related entries	1.01 ± 0.021	0.994 ± 0.016
PIN1 (UniProt Q13526)	1 ± 0.032	1.04 ± 0.054
UniProt Q14669-2|Q14669-3	0.997 ± 0.018	1.01 ± 0.03
NCAPD2 (UniProt Q15021)	1.005 ± 0.0077	0.982 ± 0.022
POLA2 (UniProt Q14181)	1 ± 0.04	1 ± 0.022
UniProt Q13043	0.997 ± 0.014	1.01 ± 0.037
BECN1 (UniProt Q14457)	0.9904 ± 0.0073	1.01 ± 0.042
GALE (UniProt Q14376)	0.988 ± 0.02	1 ± 0.049
UniProt Q13625 and related entries	0.976 ± 0.017	0.97 ± 0.014
FKBP5 (UniProt Q13451)	0.986 ± 0.028	1.007 ± 0.01
UniProt Q09028 and related entries	1.03 ± 0.046	0.986 ± 0.027

Target	NP40-soluble protein abundance (concentration: 0.1mM)	NP40-soluble protein abundance (concentration: 0.5mM)
UniProt Q15054 and related entries	1.01 ± 0.021	0.984 ± 0.026
COX17 (UniProt Q14061)	0.996 ± 0.035	0.972 ± 0.036
CDC20 (UniProt Q12834)	0.998 ± 0.028	1.03 ± 0.022
UniProt Q13332 and related entries	0.998 ± 0.019	0.99 ± 0.028
RIPK1 (UniProt Q13546)	0.974 ± 0.031	0.967 ± 0.039
EEA1 (UniProt Q15075)	0.98 ± 0.029	0.997 ± 0.047
UniProt Q13501 and related entries	1.01 ± 0.051	1.02 ± 0.037
ITPK1 (UniProt Q13572)	1.03 ± 0.011	1.04 ± 0.013
UniProt Q08J23 and related entries	1 ± 0.012	0.9938 ± 0.0082
UniProt Q13362-2|Q13362-3|Q13362-4	0.962 ± 0.027	0.973 ± 0.034
UniProt Q12981 and related entries	1 ± 0.032	0.999 ± 0.016
TRIM25 (UniProt Q14258)	0.982 ± 0.067	1 ± 0.05
UniProt Q13535 and related entries	1 ± 0.05	0.989 ± 0.034
TRA2A (UniProt Q13595)	0.994 ± 0.09	0.989 ± 0.067
ITK (UniProt Q08881)	0.988 ± 0.013	0.957 ± 0.077
UniProt Q13163 and related entries	1.002 ± 0.005	0.954 ± 0.037
ZNF146 (UniProt Q15072)	0.9607 ± 0.0067	0.9483 ± 0.0085
UniProt Q14696	0.934 ± 0.023	0.987 ± 0.046
MGAT5 (UniProt Q09328)	0.994 ± 0.035	0.976 ± 0.021
UniProt Q15067-2|Q15067	1.03 ± 0.025	1.06 ± 0.06
IK (UniProt Q13123)	0.999 ± 0.026	1.03 ± 0.049
EIF2B5 (UniProt Q13144)	1 ± 0.021	0.9802 ± 0.0087
MRPL49 (UniProt Q13405)	1.04 ± 0.047	1.04 ± 0.022
ROCK1 (UniProt Q13464)	0.977 ± 0.038	1.01 ± 0.06

As a working copy, part of the list above:
Target	NP40-soluble protein abundance (concentration: 0.1mM)	NP40-soluble protein abundance (concentration: 0.5mM)
PIN1 (UniProt Q13526)	1 ± 0.032	1.04 ± 0.054
UniProt Q14669-2|Q14669-3	0.997 ± 0.018	1.01 ± 0.03
NCAPD2 (UniProt Q15021)	1.005 ± 0.0077	0.982 ± 0.022
POLA2 (UniProt Q14181)	1 ± 0.04	1 ± 0.022
UniProt Q13043	0.997 ± 0.014	1.01 ± 0.037
BECN1 (UniProt Q14457)	0.9904 ± 0.0073	1.01 ± 0.042
GALE (UniProt Q14376)	0.988 ± 0.02	1 ± 0.049
UniProt Q13625 and related entries	0.976 ± 0.017	0.97 ± 0.014
FKBP5 (UniProt Q13451)	0.986 ± 0.028	1.007 ± 0.01
UniProt Q09028 and related entries	1.03 ± 0.046	0.986 ± 0.027
UniProt Q15054 and related entries	1.01 ± 0.021	0.984 ± 0.026
COX17 (UniProt Q14061)	0.996 ± 0.035	0.972 ± 0.036
CDC20 (UniProt Q12834)	0.998 ± 0.028	1.03 ± 0.022
UniProt Q13332 and related entries	0.998 ± 0.019	0.99 ± 0.028
RIPK1 (UniProt Q13546)	0.974 ± 0.031	0.967 ± 0.039
EEA1 (UniProt Q15075)	0.98 ± 0.029	0.997 ± 0.047
UniProt Q13501 and related entries	1.01 ± 0.051	1.02 ± 0.037
ITPK1 (UniProt Q13572)	1.03 ± 0.011	1.04 ± 0.013
UniProt Q08J23 and related entries	1 ± 0.012	0.9938 ± 0.0082
UniProt Q13362-2|Q13362-3|Q13362-4	0.962 ± 0.027	0.973 ± 0.034
UniProt Q12981 and related entries	1 ± 0.032	0.999 ± 0.016
TRIM25 (UniProt Q14258)	0.982 ± 0.067	1 ± 0.05
UniProt Q13535 and related entries	1 ± 0.05	0.989 ± 0.034
TRA2A (UniProt Q13595)	0.994 ± 0.09	0.989 ± 0.067
ITK (UniProt Q08881)	0.988 ± 0.013	0.957 ± 0.077
UniProt Q13163 and related entries	1.002 ± 0.005	0.954 ± 0.037
ZNF146 (UniProt Q15072)	0.9607 ± 0.0067	0.9483 ± 0.0085
UniProt Q14696	0.934 ± 0.023	0.987 ± 0.046
MGAT5 (UniProt Q09328)	0.994 ± 0.035	0.976 ± 0.021
UniProt Q15067-2|Q15067	1.03 ± 0.025	1.06 ± 0.06
IK (UniProt Q13123)	0.999 ± 0.026	1.03 ± 0.049

Continuation:

Target	NP40-soluble protein abundance (concentration: 0.1mM)	NP40-soluble protein abundance (concentration: 0.5mM)
PSMD6 (UniProt Q15008)	1.01 ± 0.042	0.993 ± 0.048
NFX1 (UniProt Q12986)	0.99 ± 0.036	1 ± 0.022
UniProt Q14008 and related entries	1.004 ± 0.0046	1.02 ± 0.02
MDC1 (UniProt Q14676)	0.9902 ± 0.0073	1.05 ± 0.032
EXOSC7 (UniProt Q15024)	1.02 ± 0.017	0.991 ± 0.084
UniProt Q14156 and related entries	0.99 ± 0.013	0.979 ± 0.023
UniProt Q13242	0.973 ± 0.034	1.05 ± 0.068
PPIL2 (UniProt Q13356)	0.991 ± 0.034	0.9932 ± 0.0087
URB2 (UniProt Q14146)	0.993 ± 0.015	0.973 ± 0.03
GNA13 (UniProt Q14344)	0.994 ± 0.061	0.959 ± 0.092
UniProt Q14643 and related entries	1.02 ± 0.026	0.995 ± 0.038
UniProt Q14247 and related entries	1.02 ± 0.023	1.07 ± 0.029
ARHGEF6 (UniProt Q15052)	0.991 ± 0.011	0.9996 ± 0.0073
PPP2R5D (UniProt Q14738)	0.976 ± 0.022	0.998 ± 0.02
TSTA3 (UniProt Q13630)	0.987 ± 0.026	0.964 ± 0.013
SNTB2 (UniProt Q13425)	1.04 ± 0.061	0.9802 ± 0.0086
UniProt Q13191 and related entries	0.993 ± 0.033	0.992 ± 0.017
PSMD2 (UniProt Q13200)	0.978 ± 0.045	0.95 ± 0.087
UniProt Q13029 and related entries	0.986 ± 0.032	0.981 ± 0.039
STX4 (UniProt Q12846)	0.993 ± 0.028	0.986 ± 0.017
UniProt Q13838 and related entries	0.99 ± 0.085	0.879 ± 0.061
UniProt Q12770 and related entries	1.001 ± 0.0061	0.998 ± 0.012
UniProt Q13164	1.008 ± 0.01	0.964 ± 0.026
MCM6 (UniProt Q14566)	0.983 ± 0.023	0.944 ± 0.083

Target	NP40-soluble protein abundance (concentration: 0.1mM)	NP40-soluble protein abundance (concentration: 0.5mM)
UniProt Q15057 and related entries	1.011 ± 0.0098	0.995 ± 0.015
UniProt Q14865	0.997 ± 0.015	1 ± 0.045
DSG2 (UniProt Q14126)	0.976 ± 0.043	0.974 ± 0.04
UniProt Q13033-2	0.9796 ± 0.005	0.998 ± 0.058
MORC3 (UniProt Q14149)	0.99 ± 0.02	1.01 ± 0.032
UniProt Q10567-3|Q10567-4	0.954 ± 0.015	1.01 ± 0.012
UniProt Q14CX7	1.02 ± 0.025	1.04 ± 0.022
UniProt Q15020 and related entries	1.01 ± 0.022	1.01 ± 0.02
TTLL12 (UniProt Q14166)	1.029 ± 0.0028	1.02 ± 0.049
CIRBP (UniProt Q14011)	1.01 ± 0.027	1.05 ± 0.076
UniProt Q13618 and related entries	1.01 ± 0.017	0.982 ± 0.057
UniProt Q13136 and related entries	1.02 ± 0.057	1 ± 0.061
UniProt Q14980 and related entries	1.01 ± 0.045	1.04 ± 0.05
G3BP1 (UniProt Q13283)	1.03 ± 0.011	1.066 ± 0.0018
UniProt Q14CB8 and related entries	1 ± 0.016	0.996 ± 0.022
UniProt Q13642-1|Q13642-4|Q13642-5	0.9723 ± 0.0095	0.969 ± 0.025
UniProt Q12959-3|A0A0C4DFT3|Q12959-4	0.96 ± 0.035	0.974 ± 0.027
CBX2 (UniProt Q14781)	0.991 ± 0.038	1.01 ± 0.015
PAK1 (UniProt Q13153)	0.947 ± 0.011	1.01 ± 0.037
FHL3 (UniProt Q13643)	0.962 ± 0.025	0.9596 ± 0.0052
EIF4EBP2 (UniProt Q13542)	1 ± 0.029	1.01 ± 0.019
UniProt Q12802 and related entries	0.978 ± 0.035	0.989 ± 0.042
BOP1 (UniProt Q14137)	0.9777 ± 0.0039	0.99 ± 0.045
RBL2 (UniProt Q08999)	0.965 ± 0.016	0.956 ± 0.026

Target	NP40-soluble protein abundance (concentration: 0.1mM)	NP40-soluble protein abundance (concentration: 0.5mM)
UniProt Q13472 and related entries	1.02 ± 0.015	1.01 ± 0.052
MORF4L2 (UniProt Q15014)	0.995 ± 0.02	1.01 ± 0.043
MAD2L1 (UniProt Q13257)	1.04 ± 0.044	1 ± 0.1
PRDX4 (UniProt Q13162)	0.995 ± 0.031	0.998 ± 0.092
TBL3 (UniProt Q12788)	1.04 ± 0.029	1.04 ± 0.048
LAGE3 (UniProt Q14657)	0.999 ± 0.039	0.973 ± 0.049
MGAT2 (UniProt Q10469)	1 ± 0.014	0.987 ± 0.025
UniProt Q15036 and related entries	1.012 ± 0.0058	1.05 ± 0.033
PDCD11 (UniProt Q14690)	1.033 ± 0.0036	1 ± 0.011
NNT (UniProt Q13423)	0.9793 ± 0.0018	1.001 ± 0.0048
IDI1 (UniProt Q13907)	1.01 ± 0.018	1.01 ± 0.051
PDCL (UniProt Q13371)	1.04 ± 0.012	0.993 ± 0.021
UniProt Q14C86-6|Q14C86 and related entries	0.997 ± 0.011	0.984 ± 0.018
KIF14 (UniProt Q15058)	1 ± 0.014	0.957 ± 0.01
UniProt Q13330 and related entries	1.03 ± 0.016	1.02 ± 0.028
UniProt Q15084 and related entries	0.953 ± 0.033	0.969 ± 0.023
SNX1 (UniProt Q13596)	1 ± 0.016	1.04 ± 0.015
UniProt Q13190 and related entries	1.045 ± 0.01	0.995 ± 0.023
SF3A3 (UniProt Q12874)	0.981 ± 0.019	1.03 ± 0.03
UniProt Q14289-2|Q14289	1 ± 0.035	0.965 ± 0.06
CUL1 (UniProt Q13616)	1 ± 0.012	0.996 ± 0.027
MLLT11 (UniProt Q13015)	0.979 ± 0.03	0.982 ± 0.02
USP4 (UniProt Q13107)	0.977 ± 0.033	0.969 ± 0.013
UniProt Q12769 and related entries	1.02 ± 0.031	0.973 ± 0.064
